{"source": "paper PMC10028406", "test_system": "IbAITR5 (Ipomoea batatas)", "assay": "EMSA", "conditions": "150x unlabelled probe used as competitor; EMSA per manufacturer's instructions (Thermo Fisher Scientific); pH and temperature not stated; recombinant protein; protein details: GST (pGEX-6P-1); label: biotin", "note": "For at least one entry, the source does not settle the construct or the ends of the probe.", "data": [{"sequence": "AGTCGTTTTGAACGTGACAGTTATAGAC (double strand) [IbSGR1 promoter NACRS probe (-871 to -844)]", "values": [{"measurement": "binding result", "value": "binds"}]}]}
